Data: publication PMC11863771 (Cell Communication and Signaling : CCS, 2025)
No constants are given. Whether binding was seen depends on the method and setting. In cells and extracts the contact can be indirect. Some binding calls cover weakened binding; strength is not graded here.

Amino acid sequences for entries named in this document (tags omitted).
UniProt P61073: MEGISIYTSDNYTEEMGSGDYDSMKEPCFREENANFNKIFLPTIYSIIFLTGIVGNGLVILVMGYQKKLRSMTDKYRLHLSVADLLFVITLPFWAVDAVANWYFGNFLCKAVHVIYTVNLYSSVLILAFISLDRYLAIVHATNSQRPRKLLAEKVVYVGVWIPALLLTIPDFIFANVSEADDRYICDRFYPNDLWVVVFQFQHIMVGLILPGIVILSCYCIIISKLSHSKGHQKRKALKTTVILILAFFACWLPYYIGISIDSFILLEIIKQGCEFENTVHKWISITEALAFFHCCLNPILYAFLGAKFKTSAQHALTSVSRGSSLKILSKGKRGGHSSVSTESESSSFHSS
UniProt P21453: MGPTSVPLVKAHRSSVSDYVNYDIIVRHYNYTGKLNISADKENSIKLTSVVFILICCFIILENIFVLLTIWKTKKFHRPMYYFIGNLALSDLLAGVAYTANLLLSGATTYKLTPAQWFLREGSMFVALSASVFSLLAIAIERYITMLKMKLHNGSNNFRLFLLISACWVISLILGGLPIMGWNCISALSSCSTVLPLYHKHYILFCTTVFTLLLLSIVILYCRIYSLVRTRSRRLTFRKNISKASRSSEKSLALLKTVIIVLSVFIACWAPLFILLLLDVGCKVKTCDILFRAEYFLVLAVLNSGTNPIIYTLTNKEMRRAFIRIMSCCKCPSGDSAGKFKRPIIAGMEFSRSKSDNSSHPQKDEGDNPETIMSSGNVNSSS
UniProt P35372: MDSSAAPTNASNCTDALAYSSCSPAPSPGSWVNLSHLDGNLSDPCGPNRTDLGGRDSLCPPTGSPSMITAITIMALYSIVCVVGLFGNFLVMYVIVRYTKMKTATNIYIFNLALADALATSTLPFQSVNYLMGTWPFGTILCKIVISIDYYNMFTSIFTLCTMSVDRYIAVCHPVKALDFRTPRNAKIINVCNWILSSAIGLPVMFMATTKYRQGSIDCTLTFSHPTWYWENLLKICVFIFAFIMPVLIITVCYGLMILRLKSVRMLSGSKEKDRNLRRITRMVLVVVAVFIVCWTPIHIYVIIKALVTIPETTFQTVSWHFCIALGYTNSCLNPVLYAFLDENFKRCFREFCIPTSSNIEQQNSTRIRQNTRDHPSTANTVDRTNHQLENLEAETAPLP
UniProt P04899: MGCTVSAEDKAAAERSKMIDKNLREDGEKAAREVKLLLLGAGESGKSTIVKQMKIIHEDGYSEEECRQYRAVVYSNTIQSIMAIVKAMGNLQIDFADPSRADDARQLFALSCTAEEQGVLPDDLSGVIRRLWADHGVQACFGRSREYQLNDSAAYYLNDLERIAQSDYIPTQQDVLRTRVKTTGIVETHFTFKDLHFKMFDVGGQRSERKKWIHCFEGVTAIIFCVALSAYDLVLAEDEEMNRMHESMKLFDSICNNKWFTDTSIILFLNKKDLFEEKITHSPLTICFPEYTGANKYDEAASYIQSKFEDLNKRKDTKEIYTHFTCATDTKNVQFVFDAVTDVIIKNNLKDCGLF

Key:
[1] = biological target: Flag-CXCR4-VC (human) (UniProt P61073); experiment: split reporter; BiFC in HEK293A cells transfected with Flag-CXCR4-VC and a VN-tagged GPCR; fixed, confocal microscopy
[2] = biological target: CXCR4 (endogenous) (human (endogenous in KARPAS299 and primary T cells)) (UniProt P61073); experiment: proximity ligation; double PLA in KARPAS299 cells (sgControl), endogenous receptors; anti-CXCR4 (Ulocuplumab) and anti-S1P1 (#218713), both probe orders
[3] = biological target: S1P1 (endogenous) (human (endogenous in KARPAS299 and primary T cells)) (UniProt P21453); experiment: proximity ligation; single PLA in primary human CD4+ T cells (one antibody for both probes) to detect homomers, endogenous receptors
[4] = biological target: CXCR4 (endogenous) (human (endogenous in KARPAS299 and primary T cells)) (UniProt P61073); experiment: proximity ligation; double PLA in primary human CD4+ T cells, endogenous receptors; anti-CXCR4 (Ulocuplumab) and anti-S1P1 (#218713), both probe orders
[5] = biological target: S1P1 (endogenous) (human (endogenous in KARPAS299 and primary T cells)) (UniProt P21453); experiment: proximity ligation; single PLA in KARPAS299 cells (one antibody for both probes) to identify homomers, endogenous receptors
[6] = biological target: µOR1-Rluc8 (human) (UniProt P35372); experiment: FRET or BRET; quantitative BRET saturation in HEK293A cells: fixed amount of Rluc8-tagged donor, increasing amounts of mCit-tagged acceptor, coelenterazine h 5 µM; no ligand, no further receptor coexpressed
[7] = biological target: Flag-CXCR4 (human) (UniProt P61073); experiment: proximity ligation; double PLA in HEK293A cells expressing Flag-CXCR4 and an HA-tagged GPCR; anti-CXCR4 (4G10) and anti-HA-tag (C29F4) antibodies, anti-mouse and anti-rabbit probes
[8] = biological target: HA-S1P1 (human) (UniProt P21453); experiment: proximity ligation; single PLA in transfected HEK293A cells (one antibody, both probes) to detect GPCR homomers
[9] = biological target: S1P1-mCit (human) (UniProt P21453); experiment: FRET or BRET; ligand-induced Gαi2 recruitment: BRET1 between GPCR-mCit and Gαi2-Rluc8 (with Gβ1 and Gγ2) in HEK293A cells, CXCL12 (10 nM) and/or S1P (10 nM); with or without coexpressed MYC-S1P1 or Flag-CXCR4
[10] = biological target: S1P1-mCit (human) (UniProt P21453); experiment: FRET or BRET; basal pre-association: BRET1 between GPCR-mCit and Gαi2-Rluc8 (cotransfected with Gβ1 and Gγ2) in HEK293A cells, no ligand; with or without coexpressed MYC-S1P1 or Flag-CXCR4

Q: “HA-S1P1-VN (from UniProt P21453 1-382) (receptor)” was tested. Which binding [1] did it give?
A: Its binding is “binds”.

Q: For “S1P1 (endogenous) (from UniProt P21453 1-382) (receptor)”, which binding [2] is on record?
A: Its binding is “binds”.

Q: And the binding [3]?
A: The binding was “binds”.

Q: And the binding [4]?
A: Its binding is “binds”.

Q: And the binding [5]?
A: The binding was “binds”.

Q: How did the binding [6] turn out when “CXCR4-mCit (from UniProt P61073 1-352) (receptor)” was run?
A: Its binding is “no binding”.

Q: With “HA-µOR1 (from UniProt P35372 1-400) (receptor)” as the substance, how does the binding [7] read?
A: Its binding is “no binding”.

Q: “HA-S1P1 (from UniProt P21453 1-382) (receptor)” was tested. Which binding [8] did it give?
A: The binding was “binds”.

Q: What about the binding [7] of the same substance?
A: Its binding is “binds”.

Q: Gαi2-Rluc8 (from UniProt P04899 1-355) was tested. Which binding [9] did it give?
A: Its binding is “binds”.

Q: And the binding [10]?
A: Its binding is “binds”.

Q: “HA-µOR1-VN (from UniProt P35372 1-400) (receptor)” was tested. Which binding [1] did it give?
A: The binding was “no binding”.
